# According to paper PMC5688124:
# The chains behind the UniProt entries cited, without tags or fusion partners.
# UniProt Q9UKT5: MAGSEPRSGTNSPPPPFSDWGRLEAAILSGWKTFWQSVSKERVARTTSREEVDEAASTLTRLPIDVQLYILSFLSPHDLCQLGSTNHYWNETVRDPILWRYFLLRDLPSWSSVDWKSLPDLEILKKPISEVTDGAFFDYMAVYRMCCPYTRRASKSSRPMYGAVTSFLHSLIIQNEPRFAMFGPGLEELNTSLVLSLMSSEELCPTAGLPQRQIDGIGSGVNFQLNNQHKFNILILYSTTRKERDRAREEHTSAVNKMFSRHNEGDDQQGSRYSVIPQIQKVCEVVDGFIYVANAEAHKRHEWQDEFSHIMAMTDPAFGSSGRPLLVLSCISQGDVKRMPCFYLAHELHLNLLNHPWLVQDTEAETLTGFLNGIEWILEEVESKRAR
# UniProt Q61584: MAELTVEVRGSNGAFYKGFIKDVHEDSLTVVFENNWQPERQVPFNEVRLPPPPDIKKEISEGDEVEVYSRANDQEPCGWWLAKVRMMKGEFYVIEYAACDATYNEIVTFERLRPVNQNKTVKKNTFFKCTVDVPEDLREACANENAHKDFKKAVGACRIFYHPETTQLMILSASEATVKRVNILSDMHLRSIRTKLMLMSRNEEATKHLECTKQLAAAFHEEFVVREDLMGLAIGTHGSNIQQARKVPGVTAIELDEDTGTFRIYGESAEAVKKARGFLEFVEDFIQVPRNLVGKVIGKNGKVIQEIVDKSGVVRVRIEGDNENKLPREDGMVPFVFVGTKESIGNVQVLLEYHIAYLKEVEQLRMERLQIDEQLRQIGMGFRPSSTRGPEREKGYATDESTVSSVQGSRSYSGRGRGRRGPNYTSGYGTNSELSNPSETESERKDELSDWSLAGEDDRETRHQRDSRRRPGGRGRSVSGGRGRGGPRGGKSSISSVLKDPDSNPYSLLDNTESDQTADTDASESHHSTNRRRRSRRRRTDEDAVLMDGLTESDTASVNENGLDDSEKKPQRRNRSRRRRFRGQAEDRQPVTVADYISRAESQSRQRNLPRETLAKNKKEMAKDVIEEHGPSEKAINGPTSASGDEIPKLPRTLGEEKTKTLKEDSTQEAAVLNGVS
# Target: Flag-Fbxo4 (in reconstituted Fbxo4−/− MEFs) (UniProt Q9UKT5)
# Assay: affinity purification with mass spectrometry; Fbxo4−/− MEFs reconstituted with Flag-Fbxo4 or Flag-Fbxo4ΔF, treated +/− MG-132 for 6 h, immuno-affinity purification, co-purified proteins identified by LC-MS/MS
substance,measurement,value
Fxr1 (co-purified from MEFs) (from UniProt Q61584 1-677),binding,binds

# No constants are given. Whether binding was seen depends on the method and setting. In cells and extracts the contact can be indirect. A yes stands for co-enrichment or nearness to the bait. Other partners may have been found.
